Data set [1] in a line: Tube inversion concentration-temperature phase diagram. The class given is physicochemical. Conditions: bivariate linear regression. The procedure:
Tube Inversion Test. Immediately after concentration to 2 mM, the protein was incubated at 4° C. over the course of two weeks after aliquoting 150 μL into a 2 mL Eppendorf tube. The samples were visually assessed for gelation by inverting the tubes at 12-hour time intervals thereafter, with gelled samples not flowing upon inversion.
Gelation. To study the relative gelation of Q2 as compared to the previously reported coiled-coil hydrogel, Q, protein was successfully expressed (FIG. 24), purified (FIG. 25), and concentrated to 2 mM (1% w/v) in Tris buffer (50 mM Tris, 500 mM NaCl) at pH 8.0. Purity of the protein was measured to be >99% by SDS-PAGE (FIG. 26) and concentration was measured by BCA assay. Immediately following concentration, the gelation process of Q2 was studied using the microrheology assay described previously following incubation at 4° C. Separately, 150 μL samples were aliquoted for tube inversion tests performed after 2 weeks of incubation for visual assessment of gelation over time at 4° C. (FIG. 19a-d) and at concentrations from 1 mM to 3.5 mM with temperatures 5° C. to 25° C. using 0.5 mM and 5° C. step sizes, respectively, to create a matrix-based phase diagram (FIG. 19e). Temperature and concentration ranges were selected based on preliminary tube-inversion testing at high and low ends of the ranges.
Thermoresponsiveness and material strength. UCST behavior of protein hydrogels was assessed by testing […] samples via tube inversion in 2 mL microtubes after incubation for two weeks at various temperatures and concentrations. Temperature conditions were modulated in the range of 5-40° C. The concentration range was modified depending on if precipitation was visually noticeable in the microtube at an earlier concentration, indicating a solubility limit to our phase diagram, as has been done previously. […] As done with Q2, the UCST of the hydrogels was determined using a bivariate linear relationship for the extent of gelation where tubes that passed gelation by tube inversion were assigned a value of 1 (shown in black in FIG. 52a and FIG. 64a-d) and tubes that failed gelation by tube inversion (shown in red in FIG. 52a and FIG. 64a-d) were assigned a value of 0. The heatmap in FIG. 52a and FIG. 64a-d was used to denote the range of extent of gelation where the equation was employed to solve for the UCST using the solubility limit and solving for an extent of gelation, η, value of 0.5. The UCSTs (FIG. 52b) for the hydrogels studied here were 13.0° C., 35.9° C., 33.6° C., 17.5° C., and 22.9° C. for Q3-7, respectively, as compared to 17.0° C. for Q and 22.0° C. for Q2 found previously. […]
Tube Inversion. Binary sol-gel behavior was assessed using tube inversion. […]

The nature of data set [2]: Passive microrheology (multiple particle tracking). Conditions: 2 mM, 4 °C. The class given is physicochemical. The procedure:
Microrheology. Protein was concentrated to 2 mM, as measured by BCA assay, and immediately aliquoted 27.7 μL into a 200 μL PCR tube. 1% v/v (or 0.3 μL) of […] red polystyrene fluorometric beads (FluoSpheres) were then added to the sample. A glass capillary tube was then loaded with sample by capillary action and sealed to prevent evaporation while being affixed to a microscopy slide using two-component fast-curing epoxy (JB Weld). Samples were then imaged at 0 h as a starting measurement and then every 12 h using a Leica DMI4000b inverted microscope equipped with a Leica DFC310 FX 1.4 megapixel camera at 40× magnification with 2×2 binning. Between imaging, slides were incubated on a rotisserie at 8 rpm to prevent sedimentation of the fluorometric beads. Each image series was recorded for a total of 300 frames with a lag time (i) of 0.037 s between each frame. Relaxation exponents i.e. the logarithmic slopes of particle mean-squared displacements (MSDs) with respect to lag time as determined by multiple particle tracking (MPT) analysis were used to determine when equilibration of the hydrogel was complete and measurements were no longer recorded (60 h in this case). Images were stacked and converted to grayscale in MATLAB (Mathworks, R2021a) using code developed in-house, with MPT then being employed using MATLAB code developed and modified by Dufresene, Kilfoil, Blair, and O'Neill as described previously.
Gelation kinetics of the hydrogels were assessed using passive microrheology (FIG. 61a-e). Time to gelation was measured immediately after concentration to 2 mM at 4° C. by incubating with 1 μm fluorescent tracer beads added to the protein in solution state at a final concentration of 1% (v/v). […] Mean square displacements (MSDs) of bead trajectories were analyzed periodically per the span of respective protein gelation times. An initial MSD-τ curve corresponding to a solution at 1.00 μm^2 s^−1 (consistent with Brownian motion) was used as the master solution curve and the final MSD-τ curve measured per protein gelation was selected as the master gel curve. Intermediate MSD-τ curves measured were superimposed onto either the master solution or master gel curve using horizontal and vertical shift factors, a and b, respectively. The window of sol-gel transition was determined between where a divergence in superposition occurred for each protein gelation.
Microrheology. Microrheology was used to assess gelation kinetics as described previously. Immediately after concentration to 2 mM, 29.7 uL were aliquoted with 0.3 uL of 1 um diameter FluoSpheres and loaded into glass capillary tubes (VitroCom). Samples were then imaged using an inverted fluorescent microscope (ZEISS Microscopy) at 40× magnification with 2×2 binning. Samples were incubated at 4° C. on a rotisserie at 8 rpm between measurements and imaged incrementally at select time points. […] Images were stacked, converted to greyscale, and analyzed with multiple particle tracking (MPT) in MATLAB (Mathworks, R2021a). Prior to other experiments of hydrogels in the gel state, microrheology here was used to confirm its complete transition.

Consider “Q: rationally designed pentameric coiled-coil derived from C, SEQ ID NO: 23 (MRGSHHHHHHGSIEGRVKEITFLKNTAPQMLRELQETNAALQDVRELLRQQSKL) [reference compound]”, for which, in data set [1], the “concentration coefficient of gelation” value was determined as 0.247 mM⁻¹ and the “temperature coefficient of gelation” value was −0.091 °C^−1. In data set [2], the “critical gelation time, tc (tgel)” value amounted to 70.4 ± 0.1 h and the “critical relaxation exponent, nc” value was determined as 0.53±0.03.
“Q2: coiled-coil protein redesigned from Q for reduced lateral assembly, SEQ ID NO: 11 (MRGSHHHHHHGSIEGRVKELLFLKKTAEQMLEELKETNKALHDVRHLLENQSKL) [Protein Q2]”: in data set [1], the “concentration coefficient of gelation” value came to 0.000251 mM⁻¹ and the “temperature coefficient of gelation” value was −0.050 °C^−1. In addition, in data set [2], the “critical gelation time, tc (tgel)” value came to 26.6 ± 0.5 h and the “critical relaxation exponent, nc” value was 0.48±0.001.

Source of the values: US20240115742A1, “FLUORINATED FIBERS FOR MULTIMODAL 1H AND 19F MRI, ULTRASOUND, FLUORESCENCE DETECTION AND CONFORMATIONAL AND TEMPERATURE DETECTION BY 19F MRS” (New York University, priority 2022, published 2024).
